Earlier results in patent US11903385B1, “1-(butyl(2-hydroxy-3-(naphthalen-1-yloxy)propyl)amino)-3-(naphthalen-2-yloxy)propan-2-ol as an eco-friendly insecticidal agent against Spodoptera littoralis (boisd.)” (KING FAISAL UNIVERSITY, priority 2023, dated 2024).
Some of these results come from one statement about several compounds together.

System: aquatic insects
Settings: cited from earlier work

Compound | LC50 [µg/mL]
CCOC(=O)NCCOc1ccc(Oc2ccccc2)cc1 [Fenoxycarb] | < 100
COC(C)(C)CCC[C@H](C)C/C=C/C(C)=C/C(=O)OC(C)C (racemic) [methoprene] | < 100
